# Library screen at single concentrations

By UniProt entry, the sequences of proteins in these tests, tags left out. Residues count along the entry.
UniProt A4I591, 1-473: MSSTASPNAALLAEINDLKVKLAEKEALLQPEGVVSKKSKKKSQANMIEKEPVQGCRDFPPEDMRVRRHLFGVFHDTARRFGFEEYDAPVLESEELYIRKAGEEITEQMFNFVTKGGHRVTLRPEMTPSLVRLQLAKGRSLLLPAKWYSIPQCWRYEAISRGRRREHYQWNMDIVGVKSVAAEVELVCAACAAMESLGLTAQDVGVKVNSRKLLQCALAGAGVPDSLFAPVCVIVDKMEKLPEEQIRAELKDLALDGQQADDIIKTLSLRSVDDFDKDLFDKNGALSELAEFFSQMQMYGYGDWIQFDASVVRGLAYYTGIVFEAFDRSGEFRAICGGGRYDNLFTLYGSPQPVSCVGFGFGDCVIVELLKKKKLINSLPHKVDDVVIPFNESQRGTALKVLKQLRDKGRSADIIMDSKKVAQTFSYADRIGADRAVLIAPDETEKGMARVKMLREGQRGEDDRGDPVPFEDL
UniProt P9WFT3, whole entry: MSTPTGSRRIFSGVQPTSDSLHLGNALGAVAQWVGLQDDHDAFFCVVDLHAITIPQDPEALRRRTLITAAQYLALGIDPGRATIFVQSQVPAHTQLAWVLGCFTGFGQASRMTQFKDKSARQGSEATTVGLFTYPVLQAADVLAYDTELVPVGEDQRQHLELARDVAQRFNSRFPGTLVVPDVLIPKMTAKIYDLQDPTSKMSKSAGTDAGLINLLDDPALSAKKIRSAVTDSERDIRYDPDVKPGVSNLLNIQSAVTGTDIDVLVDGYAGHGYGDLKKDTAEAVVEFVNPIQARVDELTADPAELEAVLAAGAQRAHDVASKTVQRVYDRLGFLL
UniProt P9WNZ1, whole entry: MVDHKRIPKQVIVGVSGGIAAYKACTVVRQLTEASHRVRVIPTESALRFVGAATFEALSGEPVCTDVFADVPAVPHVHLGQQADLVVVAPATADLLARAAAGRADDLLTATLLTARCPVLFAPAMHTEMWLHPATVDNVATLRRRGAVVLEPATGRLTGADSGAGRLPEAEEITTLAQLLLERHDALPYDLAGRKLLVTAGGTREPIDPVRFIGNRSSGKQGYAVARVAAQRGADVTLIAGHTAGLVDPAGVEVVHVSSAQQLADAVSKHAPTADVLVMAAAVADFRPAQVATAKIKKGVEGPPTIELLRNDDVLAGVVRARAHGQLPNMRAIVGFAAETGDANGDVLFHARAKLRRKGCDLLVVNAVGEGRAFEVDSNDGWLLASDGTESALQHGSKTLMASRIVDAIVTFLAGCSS

A: 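Histidine-tRNA ligase, Leishmania infantum (UniProt A4I591). Enzyme assay of histidyl-tRNA synthetase; the read-out is not stated. Tested at 30 µM. The record gives no direction; compounds that gave an IC50 in retests scored well above the rest, so higher reads as stronger inhibition. The assay is labelled LdHisRS but filed under L. infantum. About 69,000 compounds were tested under these conditions; 0.6% (about 410) showed 50% or more at least once.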
B: 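Enzyme assay of tryptophanyl-tRNA synthetase; the read-out is not stated. Target: Tryptophan-tRNA ligase, Mycobacterium tuberculosis (UniProt P9WFT3). Tested at 10 µM. Direction is not recorded; retested compounds ran higher, which suggests that high means inhibition. Size under these conditions: about 65,000 compounds, about 64 of them at 50% or above in at least one test.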
C: 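Assay of Toxoplasma gondii numbers, read through their beta-galactosidase reporter with a colour substrate. Concentration: 10 µM. The record gives no direction; the compounds picked for IC50 retests had high values, so higher reads as fewer parasites. Of about 67,000 compounds tested this way, about 260 (0.38%) reached 50% or more in at least one test.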
D: 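Coenzyme A biosynthesis protein CoaBC, Mycobacterium tuberculosis (UniProt P9WNZ1). Enzyme assay of CoaBC with a phosphate dye (Biomol Green) read at 650 nm. Compounds at 30 µM. Direction is inferred from only a few compounds that gave an IC50; most scored high, so higher reads as stronger inhibition. Most strong results did not repeat in a second test. About 67,000 compounds were tested under these conditions; 0.06% (about 40) showed 50% or more at least once.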

Results are given as percent effect.
How 0% and 100% were set is not recorded. Most values in the screen are low, and negative values occur.
The compounds are a random part of those screened.
A dash means the value is not listed here; it may have been measured.

compound,A,B,C,D
CC1c2cc(F)ccc2CCN1C(=O)c1[nH]c(=O)[nH]c(=O)c1N (stereo not drawn),15.96%,1.419%,9.347%,1.347%
CN(C)C(=O)NCC(=O)N1CCCC2(CCC(=O)N(CC3CC3)C2)C1 (stereo not drawn),16.33%,8.228%,-4.894%,5.052%
CCN(Cc1ccc2c(c1)OCCO2)C(=O)NCCc1cnn(C)c1,18.35%,-0.7741%,16%,6.351%
Cc1cc(C)n(Cc2cc(C(=O)N[C@H]3CCCCNC3=O)n[nH]2)n1,5.983%,-1.887%,-9.014%,3.361%
O=C(C1CCCC1)N1CC2(CCN(C3COC3)C2)OCc2ccccc21 (stereo not drawn),9.655%,-4.927%,-11%,3.421%
COc1ccc(CNC(=O)N2CCOCC2C2CC2)cc1C (stereo not drawn),3.125%,1.874%,8.248%,2.386%
COc1cccc2c1OCC(C(=O)N1CCC(N3CCSCC3)CC1)C2 (stereo not drawn),7.2%,-6.884%,20.68%,1.327%
CC(=O)N1CCC(NC(=O)NCCCc2cn[nH]c2C)CC1,6.897%,-5.61%,1.923%,-4.497%
COc1ccc([C@@H]2CN(Cc3cccnc3N)C[C@H]2N(C)C)cc1,4.196%,-4.855%,-5.294%,5.432%
COCc1nc(C2CC2)nn1-c1cccc(F)c1,15%,1.698%,0.4327%,4.634%
CN(C)S(=O)(=O)N1CCC[C@]2(C[C@@H](Oc3ncccc3F)CO2)C1,9.091%,-0.1744%,-,1.681%
Cc1ccc(N2CC[C@@H]3CN(Cc4cccc(C)n4)C[C@@H]3C2)nn1,18.42%,-5.771%,-,-11.2%
CCCN(C)S(=O)(=O)N1CCCC1c1ccco1 (stereo not drawn),14.68%,2.129%,11.09%,7.098%
CCC(=O)N1Cc2nnc(C3CCOCC3)n2C(Cc2c[nH]cn2)C1 (stereo not drawn),16.44%,-2.683%,8.772%,11.98%
COc1c(Br)cccc1CCNC(=O)c1csnn1,10%,-2.816%,4.628%,6.699%
Cn1c(CS(=O)(=O)Cc2ccc(Cl)cc2)cc(=O)n(C)c1=O,-5%,-7.046%,-15.37%,-2.784%
O=c1[nH]nc(CNc2ncc(Cl)cn2)[nH]1,11.11%,4.444%,1.535%,4.657%
COCC(=O)N1CCC(c2nc3ccc(-c4ccncc4)cn3n2)CC1,18.92%,2.212%,-,9.234%
COCC1CN(Cc2ccncc2)Cc2nn(CC3CC3)cc21.O=C(O)C(F)(F)F.O=C(O)C(F)(F)F (stereo not drawn),-,-,14.26%,-
CC(=O)Nc1ccc(Oc2cc(C)nc(C3CCCNC3)c2)cc1 (stereo not drawn),12.59%,27.22%,-,-13.08%
O=C(COCc1ccccc1)N1CCCC(n2cncn2)C1 (stereo not drawn),33.33%,-4.93%,4.997%,6.524%
COCCC(=O)N1CC2(CCN(Cc3cccc(Cl)c3)CC2)C1,5.109%,-2.819%,-,12.44%
COC1CCN(C(=O)C2CC(=O)N(c3ccccc3Br)C2)CC1 (stereo not drawn),4.959%,-3.597%,2.941%,-4.869%
CCOC(=O)COc1cccc(NC(=O)C2COCCO2)c1 (stereo not drawn),6.612%,0.7819%,-3.937%,-1.124%
COc1ccc2c(c1)c(C(=O)Nc1nnn[nH]1)cn2C(C)C,52.08%,8.863%,-1.984%,11.05%
Cc1ccc(S(=O)(=O)N2CCC3(CC(C(=O)NCC4CC4)=NO3)C2)cc1 (stereo not drawn),9.804%,-4.314%,-1.328%,-1.673%
CCC(O)CN1CCN(C(=O)c2ccn(C)c(=O)c2)CC1 (stereo not drawn),6.087%,-4.601%,1.732%,5.725%
O=C(c1ccncc1F)N1CCc2ncnc(-c3ccncc3)c2CC1,10.53%,-4.621%,-0.6993%,8.226%
CN1CC2(CCN(C(=O)c3ccc(=O)n(C)c3)CC2)CC1=O,-38.82%,1.514%,28.86%,0.6472%
COCc1cc(O)nc(C2CCCN(Cc3ccc(OC)cc3)C2)n1 (stereo not drawn),4.348%,-,-5.659%,2.913%
CC(C)N(C)[C@@H]1CCN(S(C)(=O)=O)[C@H]1Cc1ccccc1,3.774%,-,11.98%,2.195%
CC(C)C(=O)N1CCC2(CC1)NC(=O)[C@H]1CN(C(=O)N(C)C)C[C@H]12,5.825%,-2.344%,-,0.7634%
Cc1cnn(CC2CCCCN2CCCS(=O)(=O)N(C)C)c1 (stereo not drawn),1.724%,15.08%,-12.11%,2.611%
O=C(NCc1nn(-c2ccccc2)c2c1CCC2)N1CCSCC1,14.89%,4.529%,20.23%,-1.295%
Cn1cccc1C(=O)N1CCC2(CC1)CC(N1CCOCC1)C2.O=C(O)C(F)(F)F,-,-,-21.49%,-
Cc1ccccc1CN(C)C(=O)CN1CCOC(Cn2cncn2)C1 (stereo not drawn),16.95%,-8.481%,16.24%,-4.462%
[H][C@]12CC[C@]([H])(CN(Cc3ccccc3)C1)N(C(=O)CSC)C2,-,-,2.189%,-
CCc1[nH]ncc1C(=O)N1CCCN(Cc2cnn(C(C)C)c2)CC1,21.43%,2.269%,-1.551%,2.491%
CCC(Nc1cccc(OC)c1)C(=O)N(CCO)Cc1nccs1 (stereo not drawn),12.9%,-3.722%,-2.939%,8.848%
Cc1ccc(C2CSCCN2CC(=O)N2CCOCC2)cc1 (stereo not drawn),13.7%,0.8596%,9.311%,12.75%
CC(C)n1cnnc1CN(C)C(=O)C1CCCN(CC(N)=O)C1 (stereo not drawn),16.33%,3.671%,4.248%,8.43%
CNc1ncc2c(n1)CN(CCc1ccc(F)cc1)C2=O,18.52%,0.8911%,-13.73%,3.316%
COCc1nc(N(C)C)ncc1C(=O)Nc1cc(C)cc(C)c1,17.24%,1.425%,1.01%,0.4619%
Cc1ccc(CN2CCC3(CC2)C(=O)N(CC(C)C)CCN3C)s1.O=C(O)C(F)(F)F.O=C(O)C(F)(F)F,-,-,-9.63%,-
NC(=O)C1CCN(CCc2ccc(NC(=O)C3CCC3)cc2)CC1,15.38%,-4.956%,9.155%,10.12%
Cn1cc(C2CCCN2C(=O)c2cnc(-c3ccco3)s2)cn1 (stereo not drawn),9.574%,0.9032%,25.14%,0.6734%
COCCCN1C(=O)CC[C@H]2CN(Cc3ncc[nH]3)CC[C@H]21,-49.33%,4.863%,-,2.893%
Cn1cccc1C(=O)N1CCO[C@@H]2CN(Cc3ccco3)C[C@@H]2C1,11.82%,-,-,2.716%
O=C(c1ccoc1)N1CCCN(CC2CCOc3ccccc3C2)CC1 (stereo not drawn),20.55%,3.293%,4.159%,-7.667%
Cc1cc(C)n(CC2CCCN2C(=O)c2cccnc2N(C)C)n1 (stereo not drawn),14.04%,0.9939%,-3.907%,12.05%
O=C(O)C(F)(F)F.[H][C@@]12CCN(Cc3ccoc3)CC[C@]1([H])[C@@H](COC)CN(CC1CC1)C2=O,-,-,2.427%,-
Cc1nc(N2CCCC(N3CCCC3)C2)c2cnn(C)c2n1 (stereo not drawn),24.11%,-0.07241%,4.767%,7.025%
O=C1Nc2ccccc2CC12CCN(CCO)C2 (stereo not drawn),10.53%,-4.869%,-3.891%,1.426%
CC(C)N(Cc1cccnc1)C(=O)CCSc1ccc(C#N)cc1,13.7%,0.2601%,-6.798%,7.231%
Cn1ccnc(Nc2ccc3c(c2)CCN3C(=O)c2ccoc2)c1=O,23.08%,-8.14%,-0.964%,-0.4%
Cc1ccc(S(=O)(=O)NCC2(O)CCOc3ccccc32)s1 (stereo not drawn),9.917%,0.9382%,3.665%,1.373%
CCOc1cc(C)nc(N2CCN(C(=O)c3ccncc3)CC2)n1,0%,11.51%,15.73%,-2.041%

Repeated from the top, 5 entries:

compound	A	B	C	D
CC1c2cc(F)ccc2CCN1C(=O)c1[nH]c(=O)[nH]c(=O)c1N (stereo not drawn)	15.96%	1.419%	9.347%	1.347%
CN(C)C(=O)NCC(=O)N1CCCC2(CCC(=O)N(CC3CC3)C2)C1 (stereo not drawn)	16.33%	8.228%	-4.894%	5.052%
CCN(Cc1ccc2c(c1)OCCO2)C(=O)NCCc1cnn(C)c1	18.35%	-0.7741%	16%	6.351%
Cc1cc(C)n(Cc2cc(C(=O)N[C@H]3CCCCNC3=O)n[nH]2)n1	5.983%	-1.887%	-9.014%	3.361%
O=C(C1CCCC1)N1CC2(CCN(C3COC3)C2)OCc2ccccc21 (stereo not drawn)	9.655%	-4.927%	-11%	3.421%

Source: ChEMBL document CHEMBL3988442, “University of Dundee, Small-Polar-MMV Screening Library” (2021).